Values from PubChem BioAssay AID602196 (INSERM, 2012).
Screen: 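Modifiers of cisplatin sensitivity in A549 cells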. System: human A549 lung cancer cells. Reagent: siRNA pair against human genes. Duration: 48 h transfection before cisplatin; time from cisplatin to read-out not stated. Treatment: cisplatin at a dose killing half of control-siRNA cells; exact dose and duration not given. Detection: 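Shift in cisplatin death relative to control siRNA, from -50 (all cells die) to +50 (no cells die); siRNAs harmful on their own scored 0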. Direction: two-siRNA summed score (-2 to +2): higher = both siRNAs protect from cisplatin killing; -2 means both sensitise. Rule for the call: 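Each siRNA scores 0 if harmful alone by LDH or WST-1, otherwise +1 if it reduces and -1 if it increases cisplatin killing; a gene is active when both siRNAs agree (sum +2 or -2)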. Calls: active = both siRNAs shift cisplatin killing the same way; inactive = no consistent shift, or siRNA harmful alone.
The deposit covers about 23,000 reagents; shown is an unselected part. 455 of them (2%) count as active. 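Active includes both protection and sensitisation; some change values fall well beyond the stated -50 to +50 range.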 Entries without a mark were called inactive. Not all columns of the deposit are shown. Not stated in the record: the amount of reagent.

The first 3 records as a preview:
TTBK1 (tau tubulin kinase 1)
- two-siRNA summed score (-2 to +2): 0

MFGE8 (milk fat globule EGF and factor V/VIII domain containing)
- two-siRNA summed score (-2 to +2): 0

EYA1 (EYA transcriptional coactivator and phosphatase 1)
- two-siRNA summed score (-2 to +2): -1

The list itself, from the first entry:
TTBK1 (tau tubulin kinase 1)
- two-siRNA summed score (-2 to +2): 0

MFGE8 (milk fat globule EGF and factor V/VIII domain containing)
- two-siRNA summed score (-2 to +2): 0

EYA1 (EYA transcriptional coactivator and phosphatase 1)
- two-siRNA summed score (-2 to +2): -1

MGC16279
- two-siRNA summed score (-2 to +2): 0

SSTR5 (somatostatin receptor 5)
- two-siRNA summed score (-2 to +2): 1

FBXO9 (F-box protein 9)
- two-siRNA summed score (-2 to +2): 0

LOC441408
- two-siRNA summed score (-2 to +2): 0

GSTA1 (glutathione S-transferase alpha 1)
- two-siRNA summed score (-2 to +2): -1

EWSR1 (EWS RNA binding protein 1)
- two-siRNA summed score (-2 to +2): -1

GJD4 (gap junction protein delta 4)
- two-siRNA summed score (-2 to +2): 0

DNAL1 (dynein axonemal light chain 1)
- two-siRNA summed score (-2 to +2): 0

LINC02003 (long independently transcribed non-coding RNA 2003)
- two-siRNA summed score (-2 to +2): 0

PAPSS1 (3'-phosphoadenosine 5'-phosphosulfate synthase 1)
- two-siRNA summed score (-2 to +2): -1

LOC286129
- two-siRNA summed score (-2 to +2): 0

TSFM (Ts translation elongation factor, mitochondrial)
- two-siRNA summed score (-2 to +2): 0

OR4K15 (olfactory receptor family 4 subfamily K member 15)
- two-siRNA summed score (-2 to +2): 0

B4GALT5 (beta-1,4-galactosyltransferase 5)
- two-siRNA summed score (-2 to +2): 0

NDUFA7 (NADH:ubiquinone oxidoreductase subunit A7)
- two-siRNA summed score (-2 to +2): 0

AICDA (activation induced cytidine deaminase)
- two-siRNA summed score (-2 to +2): 0

LINC02370 (long independently transcribed non-coding RNA 2370)
- two-siRNA summed score (-2 to +2): 1

CACNA2D4
- two-siRNA summed score (-2 to +2): -1

IFT140 (intraflagellar transport 140)
- two-siRNA summed score (-2 to +2): 0

LOC399986
- two-siRNA summed score (-2 to +2): 0

C6orf15 (chromosome 6 open reading frame 15)
- two-siRNA summed score (-2 to +2): 1

ITGAL (integrin subunit alpha L)
- two-siRNA summed score (-2 to +2): -1

DNAJB13 (DnaJ heat shock protein family (Hsp40) member B13)
- two-siRNA summed score (-2 to +2): 1

ZNF578 (zinc finger protein 578)
- two-siRNA summed score (-2 to +2): 0

LOC442682
- two-siRNA summed score (-2 to +2): 0

RNF126 (ring finger protein 126)
- two-siRNA summed score (-2 to +2): 0

LOC440001
- two-siRNA summed score (-2 to +2): 0

FBXO22 (F-box protein 22)
- two-siRNA summed score (-2 to +2): 0
